# Results deposited as PubChem BioAssay AID1259254 (NCATS, 2017)
# Purpose: 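Gene knock-downs that lead to re-replication, shown by excess G2 DNA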 (primary screen)
# Cells: human HCT116 colorectal cancer cells
# Knock-down reagent: single siRNA against human genes
# Time to read-out: 3 days
# Detection: 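Nuclei stained with Hoechst and imaged; cell-cycle phase assigned by DNA content; G2 share scaled per plate, non-targeting siRNA 0%, GMNN siRNA 100%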
# Direction: G2 robust z-score and G2 cells, % of GMNN control: higher = more G2 cells, more excess DNA replication
# Rule for the call: 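Active siRNAs have a G2 robust z of 5 or more median absolute deviations over the median, which in these data means about 38% or higher of GMNN control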
# This is a random part of about 59,000 deposited reagents. About 1,550 of them (2.6%) count as active. 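G2 share is only a proxy for re-replication; each gene was hit by three separate siRNAs, and active genes were retested.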 The numbers tell different reagents against one gene apart. Further read-outs or replicates are left out here. Not given: the amount of reagent.
Target gene,reagent,G2 robust z-score,"G2 cells, % of GMNN control",outcome
CFAP74 (cilia and flagella associated protein 74),1,0.549,6.83,inactive
CFAP74 (cilia and flagella associated protein 74),2,0.201,4.38,inactive
CFAP74 (cilia and flagella associated protein 74),3,-0.12,2.12,inactive
CFAP74 (cilia and flagella associated protein 74),4,-0.779,-2.51,inactive
CFAP74 (cilia and flagella associated protein 74),5,-0.376,0.324,inactive
CFAP74 (cilia and flagella associated protein 74),6,-1,-4.07,inactive
AGRP (agouti related neuropeptide),1,1.41,12.9,inactive
AGRP (agouti related neuropeptide),2,-0.153,1.89,inactive
AGRP (agouti related neuropeptide),3,-0.0903,2.33,inactive
CCDC82 (coiled-coil domain containing 82),1,-0.792,-2.61,inactive
CCDC82 (coiled-coil domain containing 82),2,-0.186,1.66,inactive
CCDC82 (coiled-coil domain containing 82),3,-1.03,-4.27,inactive
AMBP (alpha-1-microglobulin/bikunin precursor),1,-1.11,-4.81,inactive
AMBP (alpha-1-microglobulin/bikunin precursor),2,6.08,45.7,active
AMBP (alpha-1-microglobulin/bikunin precursor),3,1.03,10.2,inactive
DSN1 (DSN1 component of MIS12 kinetochore complex),1,-0.481,-0.42,inactive
DSN1 (DSN1 component of MIS12 kinetochore complex),2,-0.266,1.1,inactive
DSN1 (DSN1 component of MIS12 kinetochore complex),3,-0.407,0.106,inactive
OR4K15 (olfactory receptor family 4 subfamily K member 15),1,-0.173,1.75,inactive
OR4K15 (olfactory receptor family 4 subfamily K member 15),2,1.94,16.6,inactive
OR4K15 (olfactory receptor family 4 subfamily K member 15),3,0.765,8.35,inactive
"B4GALNT4 (beta-1,4-N-acetyl-galactosaminyltransferase 4)",1,3.8,29.7,inactive
"B4GALNT4 (beta-1,4-N-acetyl-galactosaminyltransferase 4)",2,-0.368,0.38,inactive
"B4GALNT4 (beta-1,4-N-acetyl-galactosaminyltransferase 4)",3,0.327,5.27,inactive
MRPL17 (mitochondrial ribosomal protein L17),1,-0.285,0.959,inactive
MRPL17 (mitochondrial ribosomal protein L17),2,5.07,38.7,active
MRPL17 (mitochondrial ribosomal protein L17),3,0.255,4.76,inactive
MRPS23 (mitochondrial ribosomal protein S23),1,-0.166,1.8,inactive
MRPS23 (mitochondrial ribosomal protein S23),2,-0.707,-2.01,inactive
MRPS23 (mitochondrial ribosomal protein S23),3,-1.36,-6.6,inactive
SON (SON DNA and RNA binding protein),1,2.34,19.4,inactive
SON (SON DNA and RNA binding protein),2,0.219,4.51,inactive
SON (SON DNA and RNA binding protein),3,0.869,9.08,inactive
LPAR4 (lysophosphatidic acid receptor 4),1,1.46,13.3,inactive
LPAR4 (lysophosphatidic acid receptor 4),2,-0.902,-3.38,inactive
LPAR4 (lysophosphatidic acid receptor 4),3,0.113,3.76,inactive
GSTT2 (glutathione S-transferase theta 2 (gene/pseudogene)),1,-0.151,1.91,inactive
GSTT2 (glutathione S-transferase theta 2 (gene/pseudogene)),2,-0.758,-2.36,inactive
GSTT2 (glutathione S-transferase theta 2 (gene/pseudogene)),3,1.46,13.2,inactive

Next part; the last 2 above are carried over.
Target gene,reagent,G2 robust z-score,"G2 cells, % of GMNN control",outcome
GSTT2 (glutathione S-transferase theta 2 (gene/pseudogene)),2,-0.758,-2.36,inactive
GSTT2 (glutathione S-transferase theta 2 (gene/pseudogene)),3,1.46,13.2,inactive
TCP11L1 (t-complex 11 like 1),1,-0.787,-2.57,inactive
TCP11L1 (t-complex 11 like 1),2,-0.244,1.25,inactive
TCP11L1 (t-complex 11 like 1),3,2.36,19.6,inactive
ME2 (malic enzyme 2),1,0.113,3.76,inactive
ME2 (malic enzyme 2),2,-0.215,1.46,inactive
ME2 (malic enzyme 2),3,-0.315,0.749,inactive
COMMD3 (COMM domain containing 3),1,2.73,22.2,inactive
COMMD3 (COMM domain containing 3),2,1.28,12,inactive
COMMD3 (COMM domain containing 3),3,1.65,14.6,inactive
FBXO8 (F-box protein 8),1,-0.923,-3.52,inactive
FBXO8 (F-box protein 8),2,0.0522,3.33,inactive
FBXO8 (F-box protein 8),3,-0.586,-1.16,inactive
DNAJC7 (DnaJ heat shock protein family (Hsp40) member C7),1,-0.0613,2.54,inactive
DNAJC7 (DnaJ heat shock protein family (Hsp40) member C7),2,0.275,4.9,inactive
DNAJC7 (DnaJ heat shock protein family (Hsp40) member C7),3,0.297,5.06,inactive
MLXIPL (MLX interacting protein like),1,-0.0379,2.7,inactive
MLXIPL (MLX interacting protein like),2,3.55,27.9,inactive
MLXIPL (MLX interacting protein like),3,-1.17,-5.28,inactive
EFHC2 (EF-hand domain containing 2),1,2.07,17.5,inactive
EFHC2 (EF-hand domain containing 2),2,0.86,9.02,inactive
EFHC2 (EF-hand domain containing 2),3,-1.6,-8.31,inactive
ANKRD13A (ankyrin repeat domain 13A),1,-0.604,-1.28,inactive
ANKRD13A (ankyrin repeat domain 13A),2,-0.861,-3.09,inactive
ANKRD13A (ankyrin repeat domain 13A),3,0.18,4.24,inactive
PKIA (cAMP-dependent protein kinase inhibitor alpha),1,-0.65,-1.61,inactive
PKIA (cAMP-dependent protein kinase inhibitor alpha),2,-0.854,-3.04,inactive
PKIA (cAMP-dependent protein kinase inhibitor alpha),3,0.104,3.7,inactive
MED14 (mediator complex subunit 14),1,0.751,8.25,inactive
MED14 (mediator complex subunit 14),2,0.836,8.85,inactive
MED14 (mediator complex subunit 14),3,0.357,5.48,inactive
